The supplement of paper PMC10849652
The list shows a part of the results.

Chains of the proteins cited; added tags and fusions are not shown. Lines headed by an entry give the natural chain unless they say otherwise; changes in a name come on top.
UniProt Q9BUL5: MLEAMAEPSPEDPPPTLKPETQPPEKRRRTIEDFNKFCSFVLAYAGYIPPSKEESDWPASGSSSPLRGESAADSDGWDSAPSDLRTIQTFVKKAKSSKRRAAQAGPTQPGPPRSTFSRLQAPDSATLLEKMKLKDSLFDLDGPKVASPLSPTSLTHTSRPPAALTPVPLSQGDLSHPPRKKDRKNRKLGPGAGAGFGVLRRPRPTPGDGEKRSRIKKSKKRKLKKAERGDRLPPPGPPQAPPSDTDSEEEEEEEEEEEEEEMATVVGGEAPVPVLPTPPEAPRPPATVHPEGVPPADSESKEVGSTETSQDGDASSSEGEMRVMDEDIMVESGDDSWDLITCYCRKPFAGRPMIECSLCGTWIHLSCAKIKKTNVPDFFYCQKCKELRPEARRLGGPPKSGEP
UniProt Q13526, whole entry, looked up: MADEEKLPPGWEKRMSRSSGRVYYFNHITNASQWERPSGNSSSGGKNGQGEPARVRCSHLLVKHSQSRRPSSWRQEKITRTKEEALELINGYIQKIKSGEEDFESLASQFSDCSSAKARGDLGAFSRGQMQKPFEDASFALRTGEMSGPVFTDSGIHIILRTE
UniProt Q00169: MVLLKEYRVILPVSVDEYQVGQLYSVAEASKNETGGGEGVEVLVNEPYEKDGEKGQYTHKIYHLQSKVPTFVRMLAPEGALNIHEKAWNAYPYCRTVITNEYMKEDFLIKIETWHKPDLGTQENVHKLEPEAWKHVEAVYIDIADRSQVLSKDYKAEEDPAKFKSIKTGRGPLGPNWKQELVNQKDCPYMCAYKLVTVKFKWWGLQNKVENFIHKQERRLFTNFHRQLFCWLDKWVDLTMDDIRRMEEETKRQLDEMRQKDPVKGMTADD
UniProt Q9Y237, whole entry, looked up: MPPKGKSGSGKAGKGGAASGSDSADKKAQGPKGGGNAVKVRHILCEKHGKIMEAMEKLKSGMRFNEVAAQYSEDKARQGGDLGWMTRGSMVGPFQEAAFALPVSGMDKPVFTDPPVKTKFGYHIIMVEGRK
UniProt P52209: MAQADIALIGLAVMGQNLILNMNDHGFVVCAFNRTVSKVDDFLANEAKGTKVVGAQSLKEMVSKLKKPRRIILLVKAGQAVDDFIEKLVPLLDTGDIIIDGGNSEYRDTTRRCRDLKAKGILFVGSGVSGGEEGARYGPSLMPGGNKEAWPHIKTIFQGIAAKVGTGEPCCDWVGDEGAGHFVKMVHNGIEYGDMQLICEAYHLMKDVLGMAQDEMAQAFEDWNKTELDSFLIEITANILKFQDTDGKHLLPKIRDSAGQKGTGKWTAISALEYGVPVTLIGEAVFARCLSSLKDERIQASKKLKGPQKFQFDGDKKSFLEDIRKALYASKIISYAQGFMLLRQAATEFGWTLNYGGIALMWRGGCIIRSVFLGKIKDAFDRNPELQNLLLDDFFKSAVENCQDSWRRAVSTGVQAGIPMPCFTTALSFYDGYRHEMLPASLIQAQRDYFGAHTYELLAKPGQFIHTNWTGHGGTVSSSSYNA
UniProt Q99570, whole entry, looked up: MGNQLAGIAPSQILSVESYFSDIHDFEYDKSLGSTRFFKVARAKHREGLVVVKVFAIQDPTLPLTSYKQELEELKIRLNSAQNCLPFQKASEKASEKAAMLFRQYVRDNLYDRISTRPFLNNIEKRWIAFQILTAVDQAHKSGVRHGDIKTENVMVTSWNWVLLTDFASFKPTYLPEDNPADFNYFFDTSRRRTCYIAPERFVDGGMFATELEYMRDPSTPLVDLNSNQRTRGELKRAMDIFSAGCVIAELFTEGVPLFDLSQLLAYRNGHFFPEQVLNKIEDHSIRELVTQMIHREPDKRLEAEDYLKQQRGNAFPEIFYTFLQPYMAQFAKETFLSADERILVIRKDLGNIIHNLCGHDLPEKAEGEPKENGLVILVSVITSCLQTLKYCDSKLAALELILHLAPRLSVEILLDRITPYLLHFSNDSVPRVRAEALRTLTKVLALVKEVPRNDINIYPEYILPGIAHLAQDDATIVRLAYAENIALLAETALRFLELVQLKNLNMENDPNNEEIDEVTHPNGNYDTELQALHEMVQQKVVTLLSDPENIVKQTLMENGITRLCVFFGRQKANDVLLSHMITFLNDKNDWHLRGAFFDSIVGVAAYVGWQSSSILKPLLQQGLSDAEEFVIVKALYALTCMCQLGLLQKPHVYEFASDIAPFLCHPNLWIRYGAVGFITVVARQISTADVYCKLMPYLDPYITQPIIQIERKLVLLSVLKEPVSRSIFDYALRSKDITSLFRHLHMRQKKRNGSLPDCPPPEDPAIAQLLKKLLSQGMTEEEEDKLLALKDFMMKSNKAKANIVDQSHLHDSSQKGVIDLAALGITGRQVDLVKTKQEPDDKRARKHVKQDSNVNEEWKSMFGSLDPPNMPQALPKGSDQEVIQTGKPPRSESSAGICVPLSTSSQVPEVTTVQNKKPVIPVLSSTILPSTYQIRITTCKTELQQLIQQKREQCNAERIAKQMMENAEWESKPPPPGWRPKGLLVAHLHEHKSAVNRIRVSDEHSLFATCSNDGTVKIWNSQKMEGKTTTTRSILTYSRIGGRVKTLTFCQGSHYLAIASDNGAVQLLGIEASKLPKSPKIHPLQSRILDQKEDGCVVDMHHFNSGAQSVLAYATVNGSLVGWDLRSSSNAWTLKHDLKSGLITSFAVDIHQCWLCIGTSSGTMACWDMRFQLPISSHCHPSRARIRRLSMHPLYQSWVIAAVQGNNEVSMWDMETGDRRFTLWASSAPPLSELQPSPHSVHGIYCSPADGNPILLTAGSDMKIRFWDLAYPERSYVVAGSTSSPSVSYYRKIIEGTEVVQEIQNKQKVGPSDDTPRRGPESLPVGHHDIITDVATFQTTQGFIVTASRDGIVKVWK
UniProt Q96G03: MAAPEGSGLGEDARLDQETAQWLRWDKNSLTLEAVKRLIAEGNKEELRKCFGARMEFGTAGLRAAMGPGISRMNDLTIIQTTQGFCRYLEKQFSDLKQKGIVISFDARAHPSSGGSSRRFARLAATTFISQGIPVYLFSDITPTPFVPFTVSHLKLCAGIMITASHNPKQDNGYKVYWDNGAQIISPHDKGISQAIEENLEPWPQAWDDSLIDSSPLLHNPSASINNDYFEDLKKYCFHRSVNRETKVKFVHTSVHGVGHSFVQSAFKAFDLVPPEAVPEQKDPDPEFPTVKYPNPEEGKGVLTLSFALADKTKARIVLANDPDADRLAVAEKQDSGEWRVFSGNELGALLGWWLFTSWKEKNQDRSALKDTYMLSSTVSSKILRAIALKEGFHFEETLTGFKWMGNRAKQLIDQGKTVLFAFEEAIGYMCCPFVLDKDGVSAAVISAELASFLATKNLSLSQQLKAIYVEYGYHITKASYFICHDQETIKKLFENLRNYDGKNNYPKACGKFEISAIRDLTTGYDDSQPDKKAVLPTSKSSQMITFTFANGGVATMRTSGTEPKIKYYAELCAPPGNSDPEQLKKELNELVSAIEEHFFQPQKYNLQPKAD
UniProt Q9NRX4: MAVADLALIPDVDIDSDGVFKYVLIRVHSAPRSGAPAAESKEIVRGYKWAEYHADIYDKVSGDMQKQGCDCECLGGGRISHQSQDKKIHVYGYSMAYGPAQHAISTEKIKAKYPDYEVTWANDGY
UniProt Q13393: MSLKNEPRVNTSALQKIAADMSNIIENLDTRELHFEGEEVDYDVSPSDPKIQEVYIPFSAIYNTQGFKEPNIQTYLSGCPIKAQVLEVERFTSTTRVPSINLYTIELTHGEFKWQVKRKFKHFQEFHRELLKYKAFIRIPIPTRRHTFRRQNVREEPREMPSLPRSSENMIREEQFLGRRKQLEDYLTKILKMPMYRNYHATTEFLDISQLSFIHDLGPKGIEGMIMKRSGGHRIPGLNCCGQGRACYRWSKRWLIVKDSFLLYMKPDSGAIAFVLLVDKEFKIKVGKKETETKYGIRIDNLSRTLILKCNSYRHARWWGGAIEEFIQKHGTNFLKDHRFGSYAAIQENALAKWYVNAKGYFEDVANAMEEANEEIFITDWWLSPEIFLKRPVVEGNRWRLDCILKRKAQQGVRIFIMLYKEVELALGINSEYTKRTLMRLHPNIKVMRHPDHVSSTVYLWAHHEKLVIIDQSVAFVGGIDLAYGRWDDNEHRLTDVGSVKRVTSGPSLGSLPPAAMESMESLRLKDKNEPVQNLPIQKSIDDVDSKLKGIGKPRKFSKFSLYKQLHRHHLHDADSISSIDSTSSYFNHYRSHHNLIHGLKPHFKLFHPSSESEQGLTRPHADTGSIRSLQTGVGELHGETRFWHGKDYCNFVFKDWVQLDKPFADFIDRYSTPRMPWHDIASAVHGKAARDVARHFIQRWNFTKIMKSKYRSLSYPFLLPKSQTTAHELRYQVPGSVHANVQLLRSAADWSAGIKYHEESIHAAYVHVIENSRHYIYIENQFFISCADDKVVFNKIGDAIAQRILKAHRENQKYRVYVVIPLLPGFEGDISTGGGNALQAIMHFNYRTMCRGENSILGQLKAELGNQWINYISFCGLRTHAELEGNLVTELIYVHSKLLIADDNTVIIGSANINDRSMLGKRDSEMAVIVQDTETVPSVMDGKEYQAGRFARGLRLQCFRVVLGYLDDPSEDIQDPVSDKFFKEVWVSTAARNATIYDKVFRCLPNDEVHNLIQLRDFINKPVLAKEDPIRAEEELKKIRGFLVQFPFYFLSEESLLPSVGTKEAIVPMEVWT
UniProt P35232: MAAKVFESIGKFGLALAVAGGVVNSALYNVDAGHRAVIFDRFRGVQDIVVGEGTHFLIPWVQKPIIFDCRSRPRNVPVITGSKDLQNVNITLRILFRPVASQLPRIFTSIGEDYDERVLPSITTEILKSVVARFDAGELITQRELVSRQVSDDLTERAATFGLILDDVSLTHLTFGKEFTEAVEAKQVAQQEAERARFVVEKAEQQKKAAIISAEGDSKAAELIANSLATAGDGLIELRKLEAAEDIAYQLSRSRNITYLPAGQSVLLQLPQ
UniProt Q8IZ21: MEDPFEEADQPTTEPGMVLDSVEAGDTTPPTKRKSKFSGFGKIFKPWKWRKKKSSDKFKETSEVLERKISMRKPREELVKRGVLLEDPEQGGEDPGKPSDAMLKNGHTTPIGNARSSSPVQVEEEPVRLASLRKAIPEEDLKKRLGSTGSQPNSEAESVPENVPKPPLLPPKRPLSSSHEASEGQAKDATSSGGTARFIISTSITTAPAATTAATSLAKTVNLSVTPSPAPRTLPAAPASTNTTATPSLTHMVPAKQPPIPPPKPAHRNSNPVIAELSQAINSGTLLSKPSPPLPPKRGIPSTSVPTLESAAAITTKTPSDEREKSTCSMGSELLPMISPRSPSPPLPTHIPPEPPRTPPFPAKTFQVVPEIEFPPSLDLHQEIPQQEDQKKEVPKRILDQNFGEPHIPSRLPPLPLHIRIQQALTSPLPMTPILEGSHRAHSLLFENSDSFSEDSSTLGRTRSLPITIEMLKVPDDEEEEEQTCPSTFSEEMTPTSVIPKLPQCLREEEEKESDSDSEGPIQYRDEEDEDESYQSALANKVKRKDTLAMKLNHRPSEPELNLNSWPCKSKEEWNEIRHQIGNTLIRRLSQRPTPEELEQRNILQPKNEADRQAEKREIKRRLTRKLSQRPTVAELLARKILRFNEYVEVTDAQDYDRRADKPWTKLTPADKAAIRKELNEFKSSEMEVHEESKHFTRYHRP
UniProt P51178: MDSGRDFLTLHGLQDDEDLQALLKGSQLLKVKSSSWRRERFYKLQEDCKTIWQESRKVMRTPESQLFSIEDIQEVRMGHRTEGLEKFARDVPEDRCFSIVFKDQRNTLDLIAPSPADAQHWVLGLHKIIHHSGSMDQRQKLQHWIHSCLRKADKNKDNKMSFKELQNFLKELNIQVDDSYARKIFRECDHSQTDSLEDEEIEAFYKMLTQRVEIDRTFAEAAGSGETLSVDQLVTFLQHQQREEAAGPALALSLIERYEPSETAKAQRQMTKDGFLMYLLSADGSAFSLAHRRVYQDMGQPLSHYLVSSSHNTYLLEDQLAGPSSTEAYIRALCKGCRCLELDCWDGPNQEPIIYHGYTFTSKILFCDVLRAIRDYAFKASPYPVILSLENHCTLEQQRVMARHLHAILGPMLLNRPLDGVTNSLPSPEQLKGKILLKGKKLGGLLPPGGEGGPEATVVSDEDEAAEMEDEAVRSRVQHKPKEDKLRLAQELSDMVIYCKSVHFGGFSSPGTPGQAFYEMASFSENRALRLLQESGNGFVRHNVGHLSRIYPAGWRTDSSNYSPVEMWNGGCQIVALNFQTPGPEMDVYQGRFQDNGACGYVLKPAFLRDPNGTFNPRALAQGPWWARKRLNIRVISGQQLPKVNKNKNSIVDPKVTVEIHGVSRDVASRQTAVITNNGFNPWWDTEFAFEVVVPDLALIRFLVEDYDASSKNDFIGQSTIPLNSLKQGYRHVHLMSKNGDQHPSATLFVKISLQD

What was measured:
Test in all cases: log2 fold change, soluble protein after heating vs DMSO (PISA); higher = thermal stabilisation; K562 cells, 10 uM, 30 min; active = over 0.2 and 3.5 SD of the protein, either way, in both replicates (recomputed)
[1] = compound: COC1=CC=C(C=C1)CN2C=CC3=C2C=C(C=C3)C(=O)NO
Summary of the method: (§1)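 K562 cells at 2×10^6 cells/mL were given 10 μM compound for 30 min. Aliquots then went through 3 min of heating across 48°C-58°C, were pooled, and were extracted in PBS with 0.5% NP-40 at 4°C, and the supernatant after 21,000xg for 90 min was quantified by TMTpro 16plex LC-MS/MS with channel sums equalised. Thermal stability relative to control samples, from duplicates, is given as log2 fold change.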

[2] = compound: CON(C)C(=O)N1N=C(c2cc(F)ccc2F)S[C@@]1(CCCN)c1ccccc1 [filanesib]
Summary of the method: as §1

[3] = compound: CO[C@H]1C[C@@H]2CC[C@@H](C)[C@@](O)(O2)C(=O)C(=O)N2CCCC[C@H]2C(=O)O[C@H]([C@H](C)C[C@@H]2CC[C@H](n3cnnn3)[C@H](OC)C2)CC(=O)[C@H](C)/C=C(\C)[C@@H](O)[C@@H](OC)C(=O)[C@H](C)C[C@H](C)/C=C/C=C/C=C/1C [zotarolimus]
Summary of the method: as §1

[4] = compound: COc1cc(C(=O)O)ccc1NC(=O)[C@@H]1N[C@@H](CC(C)(C)C)[C@](C#N)(c2ccc(Cl)cc2F)[C@H]1c1cccc(Cl)c1F [idasanutlin]
Summary of the method: as §1

[5] = compound: COc1cc(Nc2ncc3c(n2)-c2ccc(Cl)cc2C(c2c(F)cccc2OC)=NC3)ccc1C(=O)O [alisertib]
Summary of the method: as §1

[6] = compound: COc1cc2nc(-c3cc(F)ccc3O)nc(N[C@@H]3CNC[C@H]3C(C)(C)O)c2cc1OC
Summary of the method: as §1

[7] = compound: COc1cc2ncnc(Nc3ccc(F)c(Cl)c3)c2cc1OCCCN1CCOCC1 [gefitinib]
Summary of the method: as §1

[8] = compound: COc1cccc2cc(-c3nc([C@H]4CC[C@H](C(=O)O)CC4)n4ncnc(N)c34)[nH]c12
Summary of the method: as §1

[9] = compound: CS(=O)(=O)CCNCc1ccc(-c2ccc3ncnc(Nc4ccc(OCc5cccc(F)c5)c(Cl)c4)c3c2)o1 [lapatinib]
Summary of the method: as §1

[10] = compound: CS(=O)(=O)N1CCN(Cc2cc3nc(-c4cccc5[nH]ncc45)nc(N4CCOCC4)c3s2)CC1 [pictilisib]
Summary of the method: as §1

[11] = compound: CS(=O)(=O)c1ccc(-c2cnc(N)c(C(=O)Nc3ccccc3)n2)cc1
Summary of the method: as §1

[12] = compound: C[C@@H](Oc1cc(-c2cnn(C3CCNCC3)c2)cnc1N)c1c(Cl)ccc(F)c1Cl [crizotinib]
Summary of the method: as §1

[13] = compound: C[C@@H]1COCCN1C2=NC(=NC(=C2)C3(CC3)S(=O)(=O)C)C4=C5C=CNC5=CC=C4
Summary of the method: as §1

[14] = compound: C[C@H](C1=CC=C(C=C1)C(=O)NC2=C3C=CNC3=NC=C2)N
Summary of the method: as §1

[15] = compound: C[C@H](Nc1ncnc2nc[nH]c12)c1cc2cccc(Cl)c2c(=O)n1-c1ccccc1 [duvelisib]
Summary of the method: as §1

[16] = compound: Cc1cc(Nc2cc(CN3CCOCC3)c3nc(C)c(Cc4ccc(Cl)cc4F)n3n2)n[nH]1 [gandotinib]
Summary of the method: as §1

[17] = compound: Cc1cc(Nc2cc(N3CCN(C)CC3)nc(Sc3ccc(NC(=O)C4CC4)cc3)n2)n[nH]1 [tozasertib]
Summary of the method: as §1

[18] = compound: Cc1cc(SCc2sc(-c3ccc(C(F)(F)F)cc3)nc2C)ccc1OCC(=O)O
Summary of the method: as §1

[19] = compound: Cc1ccc(-n2nc(C(C)(C)C)cc2NC(=O)Nc2ccc(OCCN3CCOCC3)c3ccccc23)cc1 [doramapimod]
Summary of the method: as §1

[20] = compound: Cc1ccc(C(=O)N(CCCN)[C@@H](c2nc3cc(Cl)ccc3c(=O)n2Cc2ccccc2)C(C)C)cc1 [ispinesib]
Summary of the method: as §1

Measured: log2 fold change

PHF23 (UniProt Q9BUL5)
inactive: [1] -0.029 | [2] -0.057 | [3] -0.011 | [4] 0.018 | [5] 0.007 | [6] 0.023 | [7] 0.042 | [8] 0.06 | [9] 0.01 | [10] 0.063 | [11] 0.009 | [12] 0.041 | [13] -0.003 | [14] -0.086 | [15] 0.004 | [16] 0.025 | [17] -0.014 | [18] -0.009 | [19] -0.014 | [20] -0.018

PITPNB isoform 3 (UniProt P48739)
inactive: [1] -0.008 | [2] -0.026 | [3] 0.112 | [4] -0.1 | [5] -0.008 | [6] 0.005 | [7] 0.035 | [8] -0.002 | [9] 0.005 | [10] 0.133 | [11] 0.089 | [12] 0.105 | [13] 0.066 | [14] -0.04 | [15] 0.072 | [16] 0.042 | [17] 0.013 | [18] -0.039 | [19] -0.026 | [20] 0.18

PIN1 (UniProt Q13526)
inactive: [1] 0.018 | [2] -0.016 | [3] -0.004 | [4] -0.028 | [5] 0.004 | [6] 0.071 | [7] 0.044 | [8] -0.012 | [9] -0.051 | [10] 0.001 | [11] 0.027 | [12] 0.073 | [13] 0.012 | [14] -0.102 | [15] 0.048 | [16] 0.046 | [17] -0.023 | [18] -0.031 | [19] -0.051 | [20] 0.073

PITPNA (UniProt Q00169)
inactive: [1] -0.102 | [2] -0.051 | [3] -0.03 | [4] -0.047 | [5] -0.007 | [6] 0.072 | [7] 0.028 | [8] 0.001 | [9] -0.043 | [10] 0.106 | [11] 0.027 | [12] 0.042 | [13] 0.002 | [14] -0.042 | [15] 0.034 | [16] 0.018 | [17] 0.001 | [18] -0.012 | [19] -0.055 | [20] 0.107

PIN4 isoform 2 (UniProt Q9Y237)
inactive: [1] 0.028 | [2] 0.004 | [3] 0.021 | [4] -0.034 | [5] -0.04 | [6] 0.01 | [7] 0 | [8] 0.057 | [9] -0.024 | [10] 0.01 | [11] 0.04 | [12] 0.008 | [13] 0.04 | [14] -0.053 | [15] 0.053 | [16] 0.002 | [17] 0.011 | [18] 0.011 | [19] -0.028 | [20] 0.082

PGAM5 (UniProt Q96HS1)
inactive: [1] 0 | [2] 0.206 | [3] 0.018 | [4] 0.039 | [5] -0.12 | [6] 0.096 | [7] -0.006 | [8] -0.086 | [9] 0 | [10] -0.037 | [11] -0.032 | [12] -0.016 | [13] -0.153 | [14] 0.17 | [15] -0.022 | [16] 0.098 | [17] -0.011 | [18] 0 | [19] 0.144 | [20] -0.116

PGD (UniProt P52209)
inactive: [1] 0.004 | [2] -0.106 | [3] 0.025 | [4] -0.051 | [5] -0.025 | [6] -0.065 | [7] 0.014 | [8] 0.005 | [9] 0.063 | [10] 0.041 | [11] 0.02 | [12] -0.041 | [13] 0.047 | [14] -0.041 | [15] 0.01 | [16] -0.017 | [17] -0.032 | [18] -0.015 | [19] 0.006 | [20] 0

PIK3R4 (UniProt Q99570)
inactive: [1] -0.007 | [2] 0.078 | [3] -0.031 | [4] -0.08 | [5] -0.009 | [6] 0.162 | [7] 0.025 | [8] -0.044 | [9] -0.004 | [10] -0.027 | [11] 0.166 | [12] -0.053 | [13] 0.034 | [14] 0.008 | [15] 0.203 | [16] 0.058 | [17] 0.001 | [18] 0.002 | [19] 0.04 | [20] -0.024

PGM2 (UniProt Q96G03)
inactive: [1] 0.024 | [2] -0.034 | [3] -0.044 | [4] -0.02 | [5] -0.019 | [6] 0.011 | [7] -0.008 | [8] 0.027 | [9] -0.009 | [10] 0.018 | [11] 0.006 | [12] 0.032 | [13] 0.056 | [14] -0.078 | [15] 0 | [16] -0.029 | [17] -0.013 | [18] -0.041 | [19] 0 | [20] 0.028

PHPT1 (UniProt Q9NRX4)
inactive: [1] -0.121 | [2] 0.039 | [3] 0.005 | [4] -0.012 | [5] -0.001 | [6] 0.002 | [7] 0.038 | [8] 0.024 | [9] -0.04 | [10] 0.11 | [11] 0.043 | [12] 0.019 | [13] -0.07 | [14] -0.041 | [15] 0.029 | [16] 0.011 | [17] 0.026 | [18] 0.015 | [19] -0.015 | [20] 0.044

PLCH1 (UniProt Q4KWH8)
inactive: [1] -0.113 | [2] 0.068 | [3] -0.092 | [4] -0.088 | [5] 0 | [6] 0.13 | [7] 0.015 | [8] -0.005 | [9] -0.126 | [10] 0.044 | [11] 0.045 | [12] -0.023 | [13] 0.023 | [14] 0.109 | [15] 0.023 | [16] -0.22 | [17] -0.08 | [18] 0.052 | [19] 0.008 | [20] -0.138

PLD1 (UniProt Q13393)
inactive: [1] 0.003 | [2] 0.11 | [3] 0.04 | [4] 0.064 | [5] -0.081 | [6] -0.244 | [7] -0.036 | [8] -0.131 | [9] 0.161 | [10] -0.045 | [11] 0.08 | [12] -0.232 | [13] -0.218 | [14] 0.175 | [15] -0.141 | [16] 0.152 | [17] -0.004 | [18] 0.105 | [19] 0.113 | [20] -0.383

PIEZO1 (UniProt Q92508)
inactive: [1] 0.021 | [2] 0.066 | [3] -0.048 | [4] 0.031 | [5] -0.051 | [6] 0.006 | [7] 0.026 | [8] 0.057 | [9] 0.043 | [10] 0.114 | [11] 0.08 | [12] 0.069 | [13] -0.028 | [14] -0.025 | [15] -0.027 | [16] 0.086 | [17] -0.018 | [18] 0.001 | [19] 0.03 | [20] 0.024

PHB (UniProt P35232)
inactive: [1] -0.078 | [2] -0.013 | [3] -0.014 | [4] 0.008 | [5] -0.025 | [6] -0.038 | [7] 0.002 | [8] 0.056 | [9] -0.003 | [10] -0.021 | [11] 0.031 | [12] 0.089 | [13] 0.055 | [14] -0.115 | [15] 0.025 | [16] -0.027 | [17] 0.015 | [18] -0.011 | [19] -0.009 | [20] 0.02

PHACTR4 isoform 2 (UniProt Q8IZ21)
inactive: [1] -0.065 | [2] 0.006 | [3] -0.055 | [4] 0.034 | [5] -0.074 | [6] 0.033 | [7] 0.017 | [8] 0.051 | [9] -0.042 | [10] 0.081 | [11] 0.048 | [12] 0.117 | [13] 0.017 | [14] 0.003 | [15] 0.007 | [16] 0.093 | [17] 0 | [18] -0.029 | [19] -0.103 | [20] 0.097

Quoted at random: 2 entries already listed
PHB (UniProt P35232)
inactive: [1] -0.078 | [2] -0.013 | [3] -0.014 | [4] 0.008 | [5] -0.025 | [6] -0.038 | [7] 0.002 | [8] 0.056 | [9] -0.003 | [10] -0.021 | [11] 0.031 | [12] 0.089 | [13] 0.055 | [14] -0.115 | [15] 0.025 | [16] -0.027 | [17] 0.015 | [18] -0.011 | [19] -0.009 | [20] 0.02

PLCH1 (UniProt Q4KWH8)
inactive: [1] -0.113 | [2] 0.068 | [3] -0.092 | [4] -0.088 | [5] 0 | [6] 0.13 | [7] 0.015 | [8] -0.005 | [9] -0.126 | [10] 0.044 | [11] 0.045 | [12] -0.023 | [13] 0.023 | [14] 0.109 | [15] 0.023 | [16] -0.22 | [17] -0.08 | [18] 0.052 | [19] 0.008 | [20] -0.138

Continuation.

PLCD1 isoform 2 (UniProt P51178)
inactive: [1] -0.013 | [2] -0.081 | [3] 0.085 | [4] -0.072 | [5] -0.053 | [6] -0.02 | [7] 0.029 | [8] 0.008 | [9] 0 | [10] -0.015 | [11] -0.022 | [12] -0.169 | [13] 0.068 | [14] -0.017 | [15] 0.054 | [16] -0.064 | [17] -0.055 | [18] 0.05 | [19] 0.041 | [20] -0.11
